Values from PubChem BioAssay AID504764 (Drosophila RNAi Screening Center, 2011).

- Screen: 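Genes whose knock-down alters Notch-dependent transcription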 (primary screen)
- Cell system: Drosophila Kc167 cells
- Reagent: long dsRNA against Drosophila genes
- Timing: about 5 days (4 days dsRNA, then 24 h after transfection)
- Challenge: transfection of constitutively active membrane-tethered Notch lacking the extracellular domain, read 24 h later
- Read-out: 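Light from a Notch-responsive E(spl)m3 luciferase reporter under active Notch, with control-promoter and no-Notch reporter wells to normalise; raw counts from paired wells a and b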
- Reading the numbers: induced reporter light, run 1, well a and induced reporter light, run 1, well b: higher = more light from the Notch target reporter with active Notch; control promoter light, run 1, well a and control promoter light, run 1, well b: higher = more light from the viral control promoter (cell number, transfection, viability); uninduced reporter light, run 1, well a: higher = more light from the Notch target reporter without active Notch
- Hit rule: 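Hit if the duplicate-averaged log2 ratio of induced to control-promoter light gives a plate-wise z beyond ±2, or induced to uninduced beyond ±1.8; weak-control or discordant-duplicate wells dropped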
- Meaning of the calls: active = modifier hit (raised or lowered Notch signal); inactive = not a hit
The screen tested about 22,000 reagents; shown is an unselected part of those that have a named target and a result. Over the whole deposit, 403 (1.9%) were called active. 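Unnormalised raw counts per well; ratio z-scores behind the hit calls and whether each hit raises or lowers signal are not deposited.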 Names joined by + are all predicted targets of the reagent. Reagent sequences are not shown. Not stated in the record: the amount of reagent.

| Gene | amplicon | induced reporter light, run 1, well a | induced reporter light, run 1, well b | control promoter light, run 1, well a | control promoter light, run 1, well b | uninduced reporter light, run 1, well a | call |
| --- | --- | --- | --- | --- | --- | --- | --- |
| Zip71B | DRSC09686 | 1.60e5 | 2.22e5 | 2.90e5 | 2.14e5 | 9120 | inactive |
| Oseg6 | DRSC06066 | 39375 | 28135 | 44290 | 37130 | 3370 | inactive |
| CG8204 | DRSC07106 | 1.16e5 | 1.02e5 | 1.39e5 | 1.28e5 | 10270 | inactive |
| CG32219 | DRSC09641 | 2.81e5 | 2.23e5 | 2.62e5 | 2.98e5 | 22285 | inactive |
| CG10185 | DRSC14205 | 2.46e5 | 2.56e5 | 2.82e5 | 2.96e5 | 20000 | inactive |
| CG9825 | DRSC04569 | 1.92e5 | 1.75e5 | 2.45e5 | 1.48e5 | 13765 | inactive |
| CG34129 | DRSC15960 | 1.40e5 | 1.65e5 | 1.70e5 | 1.82e5 | 14240 | inactive |
| CG4036 | DRSC02735 | 1.93e5 | 2.32e5 | 1.93e5 | 1.93e5 | 16155 | inactive |
| asun | DRSC16733 | 1.88e5 | 1.94e5 | 2.51e5 | 3.07e5 | 15060 | inactive |
| Dis3 | DRSC16034 | 44835 | 45190 | 59455 | 62010 | 3165 | inactive |
| Aos1 | DRSC14113 | 1.09e5 | 83240 | 87780 | 64300 | 6680 | inactive |
| kin17 | DRSC11890 | 66905 | 59080 | 63495 | 60550 | 3345 | inactive |
| CG42726 + CG42727 | DRSC14485 | 1.28e5 | 1.21e5 | 91425 | 83160 | 9995 | inactive |
| CG43658 | DRSC20111 | 44645 | 41415 | 49850 | 45570 | 6870 | inactive |
| Ythdf | DRSC16036 | 2.07e5 | 2.00e5 | 2.19e5 | 2.30e5 | 15240 | inactive |
| Ythdf | DRSC16037 | 1.54e5 | 1.94e5 | 2.77e5 | 2.47e5 | 14205 | inactive |
| hlk | DRSC05021 | 2.40e5 | 2.03e5 | 1.92e5 | 1.99e5 | 15265 | inactive |
| hlk | DRSC05022 | 1.73e5 | 1.73e5 | 1.64e5 | 1.44e5 | 12120 | inactive |
| CG11413 + CG4622 | DRSC04109 | 1.43e5 | 1.37e5 | 1.92e5 | 1.68e5 | 10645 | inactive |
| Hcf | DRSC17143 | 67015 | 72400 | 1.66e5 | 1.64e5 | 6260 | active |
| cd | DRSC16157 | 1.98e5 | 1.86e5 | 1.57e5 | 1.55e5 | 12195 | inactive |
| CG42329 | DRSC00373 | 86870 | 93420 | 85290 | 41560 | 7040 | inactive |
| CG42329 | DRSC00682 | 94290 | 1.10e5 | 75365 | 40195 | 9445 | inactive |
| pain | DRSC04273 | 2.25e5 | 1.80e5 | 1.97e5 | 1.76e5 | 14478 | inactive |
| CG3769 | DRSC02723 | 1.28e5 | 1.43e5 | 74815 | 92840 | 16425 | inactive |
| AOX1 | DRSC15339 | 1.62e5 | 1.47e5 | 1.17e5 | 1.16e5 | 11938 | inactive |
| Etfb | DRSC16324 | 1.64e5 | 2.02e5 | 2.41e5 | 2.33e5 | 12315 | inactive |
| vvl | DRSC11409 | 2.09e5 | 2.00e5 | 3.31e5 | 2.90e5 | 15550 | inactive |
| Qsox1 | DRSC06878 | 93435 | 1.05e5 | 86740 | 95150 | 8725 | active |
| Mps1 | DRSC16273 | 1.25e5 | 1.10e5 | 90335 | 94865 | 10150 | active |
| St1 | DRSC04504 | 94945 | 92900 | 70520 | 74490 | 6670 | inactive |
| CG18746 | DRSC15383 | 40605 | 67760 | 82580 | 58675 | 5840 | inactive |
| l(1)G0004 | DRSC20486 | 98690 | 95450 | 85130 | 38800 | 7832 | inactive |
| Lamtor5 | DRSC18491 | 1.11e5 | 1.45e5 | 2.10e5 | 2.06e5 | 8610 | inactive |
| Srlp | DRSC15890 | 80555 | 76785 | 85915 | 76015 | 4392 | inactive |
| CG15207 (retired record) | DRSC19653 | 1.68e5 | 1.13e5 | 2.81e5 | 2.14e5 | 9142 | inactive |
| CAH9 | DRSC15963 | 1.69e5 | 1.54e5 | 2.18e5 | 1.91e5 | 13720 | inactive |
| janB | DRSC16973 | 1.13e5 | 94635 | 1.30e5 | 1.46e5 | 9235 | inactive |
| CG1161 | DRSC12180 | 22475 | 28505 | 10180 | 8700 | 2750 | inactive |
| CG43394 | DRSC01013 | 1.54e5 | 1.63e5 | 1.39e5 | 1.37e5 | 10292 | inactive |
| CG12567 | DRSC20845 | 82675 | 71275 | 80665 | 79045 | 8430 | inactive |
| CG8892 | DRSC03121 | 1.63e5 | 1.75e5 | 1.65e5 | 1.60e5 | 16062 | inactive |
| CG11334 | DRSC14066 | 74025 | 93130 | 1.08e5 | 1.06e5 | 6875 | inactive |
| CG11334 | DRSC14302 | 1.70e5 | 1.54e5 | 2.40e5 | 2.52e5 | 10105 | inactive |
| Tpc1 | DRSC15614 | 89145 | 76910 | 77950 | 52390 | 5635 | inactive |
| Tpc1 | DRSC16074 | 1.24e5 | 1.17e5 | 94880 | 73240 | 9060 | inactive |
| wupA | DRSC20385 | 63610 | 78195 | 73790 | 60970 | 8260 | inactive |
| CG7546 | DRSC08885 | 2.01e5 | 1.74e5 | 1.82e5 | 2.13e5 | 14828 | inactive |
| CG7546 | DRSC10871 | 1.15e5 | 1.40e5 | 90630 | 43350 | 13445 | inactive |
| ebd2 | DRSC11682 | 1.18e5 | 89890 | 1.20e5 | 96920 | 6630 | inactive |
| CG11247 | DRSC11643 | 1.12e5 | 1.31e5 | 84990 | 94470 | 9830 | inactive |
| CG8141 | DRSC16387 | 2.86e5 | 2.57e5 | 2.50e5 | 2.56e5 | 20540 | inactive |
| COX7A | DRSC16514 | 86965 | 1.03e5 | 95690 | 72075 | 4530 | inactive |
| bmm | DRSC10502 | 1.04e5 | 1.36e5 | 68800 | 84205 | 7865 | inactive |
| arr | DRSC07451 | 1.18e5 | 1.09e5 | 1.29e5 | 1.64e5 | 11145 | inactive |
| Dop1R1 | DRSC13021 | 1.62e5 | 1.33e5 | 2.05e5 | 1.80e5 | 11300 | inactive |
| Dop1R1 | DRSC16652 | 2.46e5 | 3.17e5 | 1.82e5 | 1.64e5 | 20945 | inactive |
| Or43a | DRSC07485 | 1.46e5 | 1.41e5 | 1.84e5 | 1.86e5 | 12225 | inactive |
| TTLL3B | DRSC02133 | 1.49e5 | 1.42e5 | 1.63e5 | 1.41e5 | 9095 | inactive |
| ATPsynCF6 | DRSC14092 | 1.02e5 | 93700 | 1.57e5 | 1.38e5 | 8725 | inactive |
| CG3566 | DRSC18311 | 1.55e5 | 1.84e5 | 4.05e5 | 2.83e5 | 12905 | inactive |
| up | DRSC20382 | 1.49e5 | 1.34e5 | 1.87e5 | 1.74e5 | 8665 | inactive |
| Obp69a | DRSC11247 | 1.62e5 | 1.45e5 | 3.18e5 | 2.96e5 | 10495 | active |
| gw | DRSC17135 | 47145 | 48930 | 92665 | 1.17e5 | 4175 | active |
| gw | DRSC17160 | 10725 | 10882 | 22010 | 24180 | 1825 | inactive |

Part of the list above in another layout:
CG8892 [DRSC03121] → induced reporter light, run 1, well a: 1.63e5; induced reporter light, run 1, well b: 1.75e5; control promoter light, run 1, well a: 1.65e5; control promoter light, run 1, well b: 1.60e5; uninduced reporter light, run 1, well a: 16062; call: inactive
CG11334 [DRSC14066] → induced reporter light, run 1, well a: 74025; induced reporter light, run 1, well b: 93130; control promoter light, run 1, well a: 1.08e5; control promoter light, run 1, well b: 1.06e5; uninduced reporter light, run 1, well a: 6875; call: inactive
CG11334 [DRSC14302] → induced reporter light, run 1, well a: 1.70e5; induced reporter light, run 1, well b: 1.54e5; control promoter light, run 1, well a: 2.40e5; control promoter light, run 1, well b: 2.52e5; uninduced reporter light, run 1, well a: 10105; call: inactive
Tpc1 [DRSC15614] → induced reporter light, run 1, well a: 89145; induced reporter light, run 1, well b: 76910; control promoter light, run 1, well a: 77950; control promoter light, run 1, well b: 52390; uninduced reporter light, run 1, well a: 5635; call: inactive
Tpc1 [DRSC16074] → induced reporter light, run 1, well a: 1.24e5; induced reporter light, run 1, well b: 1.17e5; control promoter light, run 1, well a: 94880; control promoter light, run 1, well b: 73240; uninduced reporter light, run 1, well a: 9060; call: inactive
wupA [DRSC20385] → induced reporter light, run 1, well a: 63610; induced reporter light, run 1, well b: 78195; control promoter light, run 1, well a: 73790; control promoter light, run 1, well b: 60970; uninduced reporter light, run 1, well a: 8260; call: inactive
CG7546 [DRSC08885] → induced reporter light, run 1, well a: 2.01e5; induced reporter light, run 1, well b: 1.74e5; control promoter light, run 1, well a: 1.82e5; control promoter light, run 1, well b: 2.13e5; uninduced reporter light, run 1, well a: 14828; call: inactive
CG7546 [DRSC10871] → induced reporter light, run 1, well a: 1.15e5; induced reporter light, run 1, well b: 1.40e5; control promoter light, run 1, well a: 90630; control promoter light, run 1, well b: 43350; uninduced reporter light, run 1, well a: 13445; call: inactive
ebd2 [DRSC11682] → induced reporter light, run 1, well a: 1.18e5; induced reporter light, run 1, well b: 89890; control promoter light, run 1, well a: 1.20e5; control promoter light, run 1, well b: 96920; uninduced reporter light, run 1, well a: 6630; call: inactive
CG11247 [DRSC11643] → induced reporter light, run 1, well a: 1.12e5; induced reporter light, run 1, well b: 1.31e5; control promoter light, run 1, well a: 84990; control promoter light, run 1, well b: 94470; uninduced reporter light, run 1, well a: 9830; call: inactive
CG8141 [DRSC16387] → induced reporter light, run 1, well a: 2.86e5; induced reporter light, run 1, well b: 2.57e5; control promoter light, run 1, well a: 2.50e5; control promoter light, run 1, well b: 2.56e5; uninduced reporter light, run 1, well a: 20540; call: inactive
